Values from PubChem BioAssay AID686937 (Drosophila RNAi Screening Center, 2013).

Test: 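Genes whose loss weakens secretory pathway function in fly cells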 (primary screen)
Cell system: Drosophila S2 cells expressing secreted horseradish peroxidase
Reagents: long dsRNA against Drosophila genes
Duration: about 5.5 days (5 days dsRNA, then 12 h reporter induction)
Treatment: reporter expression induced after 5 days of dsRNA, read 12 h later; inducer not stated
Measurement: 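After 5 days of dsRNA and 12 h of reporter induction, medium peroxidase read by chemiluminescence and scored as per-plate z-score; higher values mean more reporter released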
Direction: z-score: higher = more reporter secreted into medium
In all, the deposit lists about 23,000 reagents; below is an unselected part of those that have a named target and a result. 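Reduced-secretion tags in replicate 1 do not always agree with the z-scores; no criterion for assigning the tags was given.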 The numbers tell different reagents against one gene apart. Names joined by + are all predicted targets of the reagent. Not all columns of the deposit are shown. Not stated in the record: the amount of reagent.

gene | reagent no. | z-score, replicate 1 | z-score, replicate 2
CG2336 | 1 | 0.17 | 0.34
CG6693 | 1 | 0.27 | 0.35
hebe | 1 | 0.91 | –
hebe | 2 | 0.42 | 0.49
hebe | 3 | -0.12 | 0.02
lig | 1 | 0.39 | 0.51
lig | 2 | -0.06 | -0.68
CG14693 | 1 | 0.59 | 0.82
Orc1 | 1 | 0.76 | 0.68
CG43163 | 1 | 0.25 | 0.32
CG1227 | 1 | 0.32 | 0.15
Vps39 | 1 | 0.15 | 0.27
RasGAP1 | 1 | 0.76 | 0.57
Or7a | 1 | 0.25 | 0.63
CG10086 | 1 | 0.22 | 0.04
anchor | 1 | 0.34 | 0.41
tub | 1 | -0.77 | 0.22
tub | 2 | -0.2 | -0.27
CG15403 | 1 | 0.49 | 0.36
CG11380 | 1 | -0.24 | -0.24
Tet | 1 | 0.5 | 0.47
Tet | 2 | -0.15 | 0.13
Tet | 3 | -0.14 | 0.06
dgt6 | 1 | 0.33 | 0.36
CG14454 | 1 | 0.61 | 0.76
lncRNA:bxd | 1 | 0.02 | 0.25
chrb | 1 | 0.28 | 0.23
Coq4 + frc | 1 | -1.18 | -0.75
Coq4 + frc | 2 | 0.34 | 0.14
nesd | 1 | 0.23 | 0.19
CG5122 | 1 | 0.48 | 0.5
Acp98AB | 1 | 0.57 | 0.08
PAPLA1 | 1 | 0.25 | 0.35
PAPLA1 | 2 | 0.39 | -0.09
CG34163 | 1 | 0.28 | 0.06
BaraB | 1 | 0.25 | 0.1
Cp36 | 1 | 0.21 | 0.4

Individual results from the entries so far.
For “z-score, replicate 2”, CG5122 is entered as 0.5
BaraB, z-score, replicate 1: 0.25
Cp36, z-score, replicate 2 → 0.4
CG2336, z-score, replicate 1: 0.17
CG14693, z-score, replicate 1 = 0.59
Entry for Acp98AB under “z-score, replicate 2”: 0.08

The list goes on:
gene | reagent no. | z-score, replicate 1 | z-score, replicate 2
CG6843 | 1 | 0.49 | 0.57
soti | 1 | 0.46 | 0.39
DNAlig3 | 1 | 0.23 | 0.53
Srrm234 | 1 | -1.28 | -0.56
Srrm234 | 2 | 0.32 | 0.16
DCP1 | 1 | -0.3 | -0.66
CG32409 | 1 | -1.98 | 0.32
NUCB1 | 1 | -0.06 | -1.53
Tb | 1 | 0.3 | 0.66
CG13116 | 1 | -0.64 | 0.31
CG13116 | 2 | -0.21 | 0.05
Dbp80 | 1 | -0.47 | 0.3
CG13810 | 1 | 0.38 | 0.31
CG13810 | 2 | -0.42 | -0.18
CG9380 | 1 | 0.52 | 0.16
CG31778 | 1 | 0.39 | 0.21
nw | 1 | 0.36 | 0.1
nw | 2 | 0.4 | 0.57
nw | 3 | 0.08 | 0.27
